{"source": "patent US20160032259A1", "about": "(KOREA ADVANCED INSTITUTE OF SCIENCE AND TECHNOLOGY KAIST, published 2016)", "binders": {"B1": {"name": "VEGF-Trap (Fc fusion, UniProt P17948 129-230, looked up, not shown: a dimerising Fc or GST)", "chain": "SDTGRPFVEMYSEIPEIIHMTEGRELVIPCRVTSPNITVTLKKFPLDTLIPDGKRIIWDSRKGFIISNATYKEIGLLTCEATVNGHLYKTNYLTHRQTNTIIDVVLSPSHGIELSVGEKLVLNCTARTELNVGIDFNWEYPSSKHQHKKLVNRDLKTQSGSEMKKFLSTLTIDGVTRSDQGLYTCAASSGLMTKKNSTFVRVHEK", "modifications": "N-glycans at Asn61, Asn93 and Asn328"}}, "molecular_target": "T1, hVEGF-B (human) (UniProt P49765)", "T1 sequence (looked up)": "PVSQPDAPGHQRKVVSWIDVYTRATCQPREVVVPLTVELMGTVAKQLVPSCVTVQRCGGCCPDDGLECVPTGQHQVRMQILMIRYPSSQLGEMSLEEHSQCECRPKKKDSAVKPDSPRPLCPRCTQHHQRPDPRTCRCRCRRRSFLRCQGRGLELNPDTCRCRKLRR", "assay": "solid phase binding ELISA; hVEGF-B coated, Fc fusion titrated, anti-human Fc-HRP", "note": "Results are given in words; binding and its absence hold for the method and conditions named. Some binding calls cover weakened binding; strength is not graded here."}
{"binder": "B1", "values": [{"measurement": "binding", "result": "binds"}]}
